PubChem BioAssay AID652272 – Drosophila RNAi Screening Center, 2013
Purpose: 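Genes whose knock-down decreases or increases Hedgehog reporter output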 (primary screen). Cells: Drosophila clone 8 (Cl8) cells. Reagents: long dsRNA against Drosophila genes. Measurement: 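Plate reader light from a firefly reporter under a ptc promoter fragment that responds to Hedgehog, with Renilla light as transfection reference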. Scale: firefly Hh reporter signal: higher = more ptc reporter light; Renilla reference signal: higher = more Renilla control light. Rule for the call: 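Hit when the z-score averaged over two replicates is under -2 or over +3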. Calls: active = hit: reporter lowered or raised; inactive = not a hit.
In all, the deposit lists about 21,000 reagents; shown is an unselected part of those that have a named target and a result. Of all reagents, 503 (2.4%) are marked active. 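Raw plate light values, not normalised; calls rest on replicate z-scores that were not deposited; hits include reporter decreases as well as increases.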 Entries without a mark were called inactive. Names joined by + are all predicted targets of the reagent. Not given: the amount of reagent, the time to read-out.

target gene	PubChem SID	firefly Hh reporter signal, replicate 1	firefly Hh reporter signal, replicate 2	firefly Hh reporter signal, replicate 3	Renilla reference signal, replicate 1	Renilla reference signal, replicate 2
IFT46	SID104182254	84085	59808		1778	5645
ras	SID104198617	88269	94038		2005	1891
Traf-like	SID104199686	77860	80631		1691	1243
Cyp9f3	SID104196428	87883	1.83e5		3464	4268
gb	SID104195753	1.30e5	85513		2577	2469
CG17127	SID104182373	1.37e5	65625		3452	6528
Gr59c	SID104183977	85190	65130		2272	4886
Klp59C	SID104184140	1.15e5	67888		2741	5651
CG34210	SID104184371	1.09e5	74466		2106	6977
VAChT + ChAT	SID104193104	55825	1.73e5		10455	2533
CG13689	SID104180150	1.04e5	84136		2812	2065
asRNA:CR42743 + CG34162	SID104180982	5.90e5	1.77e5		28404	8960
Qtzl	SID104181013	6.77e5	2.79e5		37762	10292
aph-1	SID104180339	64726	58663		3133	3099
axed	SID104188625	95293	2.29e5		2345	8851
axed	SID104190774	57833	50716		4967	3308
Nubpl	SID104183517	60788	47786		2272	1836
His3:CG33818 + His3:CG33857 + His3:CG33806 + 20 more	SID104201059	13498	36924		279	1360
LRR	SID104186236	84633	46714		1906	3024
puf	SID104195667	2.48e5	25063		15965	1065
bma	SID104189688	26378	34352	50070	3549	3289
bma	SID104189956	23680	54391	58418	5312	3707
CG30373	SID104184873	1.30e5	2.09e5		3683	10315
CG13996	SID104182120	1.39e5	60336		3523	5996
Polr2A	SID104200072	1.22e5	63202		2128	1495
sotv + CG10731	SID104185722	1.02e5	41125		2369	2608
sotv + CG10731	SID104185789	61273	48636		1591	3552
CG13217	SID104186131	1.27e5	63852		2689	4689
CG7255	SID104190582	84039	62940		3440	2848
CG5292	SID104195555	82848	90025		2221	6026
Mrgn1	SID104200015	90560	68137		1785	822
Hmbs	SID104188424	1.06e5	76227		5041	3058
CG14837	SID104189999	42240	53688		4625	3532
twit	SID104183002	1.15e5	1.05e5		4224	4322
CG31624	SID104182409	1.38e5	1.22e5		4885	4039
Cp18	SID104190912	60480	67360		5714	4955
CG31437	SID104193503	43810	5.16e5	2.21e5	12208	3929
Gel	SID104192142	1.41e5	85522		6022	3848
Grl62c	SID104187756	1.22e5	2.21e5		3446	10273
Snx6	SID104182873	1.43e5	1.09e5		5195	4759
CG12814	SID104194344	1.19e5	79539		5378	3448
CG12814	SID104194345	57994	98099		1960	2891
Sgs1	SID104180579	1.43e5	82971		3607	7864
Sgs1	SID104180640	7.53e5	2.82e5		34739	9792
Rich	SID104191399	1.31e5	88630		4848	3476
Nepl10	SID104187004	99627	68909		2520	5546
CG10470	SID104181853	67396	39116		1754	4340
Sec16	SID104199580	92134	3.90e5		3149	13241
Sec16	SID104199650	1.65e5	3.98e5		5844	14122
CG6763	SID104195902	5.43e5	75868		24757	2475
CG8031	SID104196156	1.13e5	1.02e5		5412	4008
CG14456	SID104191505	78298	1.07e5		3075	2669
CG11349	SID104187971	52118	54914		5654	3655
mahe	SID104197547	1.01e5	85138		1780	1626
CG6654	SID104195876	1.31e5	97541		5000	3396
Bet5	SID104194392	96208	1.08e5		2612	3239
Yod1	SID104190225	1.85e5	1.22e5		7328	4832
sun	SID104199932	41096	1.38e5		1338	6087
Obp56e	SID104186980	80443	75189		2357	5488
CG16995	SID104180272	1.09e5	98043		2704	2274
Nop60B	SID104184419	85344	50560		3808	2289
dwg	SID104198558	94230	81440		1600	2429
CG15643	SID104199471	51942	2.00e5		1235	8176
qkr58E-2	SID104184502	72306	48784		1080	4374
CG31391	SID104195839	49888	1.23e5		1808	3641
CG1603	SID104186394	94336	50051		4176	1248
insc	SID104184487	1.30e5	55408		3357	5757
bai	SID104194180	5.41e5	1.43e5		29224	4128
Psf1	SID104188430	1.28e5	3.94e5	1.18e5	6087	25660
CG10086	SID104193975	57463	64673		3014	2667
CG2991	SID104180351	88572	49946		4155	2588
sky	SID104182175	92058	97040		4072	3780
sky	SID104183006	67323	52617		3082	2504
sky	SID104183007	1.06e5	42195		2859	4243

Limited to “Renilla reference signal, replicate 1” (7 entries from above):
IFT46 [SID104182254]: 1778
ras [SID104198617]: 2005
Traf-like [SID104199686]: 1691
Cyp9f3 [SID104196428]: 3464
gb [SID104195753]: 2577
CG17127 [SID104182373]: 3452
Gr59c [SID104183977]: 2272
